We go through two molecules from article PMC10878100.

The chains behind the UniProt entries cited, without tags or fusion partners.
UniProt Q13616: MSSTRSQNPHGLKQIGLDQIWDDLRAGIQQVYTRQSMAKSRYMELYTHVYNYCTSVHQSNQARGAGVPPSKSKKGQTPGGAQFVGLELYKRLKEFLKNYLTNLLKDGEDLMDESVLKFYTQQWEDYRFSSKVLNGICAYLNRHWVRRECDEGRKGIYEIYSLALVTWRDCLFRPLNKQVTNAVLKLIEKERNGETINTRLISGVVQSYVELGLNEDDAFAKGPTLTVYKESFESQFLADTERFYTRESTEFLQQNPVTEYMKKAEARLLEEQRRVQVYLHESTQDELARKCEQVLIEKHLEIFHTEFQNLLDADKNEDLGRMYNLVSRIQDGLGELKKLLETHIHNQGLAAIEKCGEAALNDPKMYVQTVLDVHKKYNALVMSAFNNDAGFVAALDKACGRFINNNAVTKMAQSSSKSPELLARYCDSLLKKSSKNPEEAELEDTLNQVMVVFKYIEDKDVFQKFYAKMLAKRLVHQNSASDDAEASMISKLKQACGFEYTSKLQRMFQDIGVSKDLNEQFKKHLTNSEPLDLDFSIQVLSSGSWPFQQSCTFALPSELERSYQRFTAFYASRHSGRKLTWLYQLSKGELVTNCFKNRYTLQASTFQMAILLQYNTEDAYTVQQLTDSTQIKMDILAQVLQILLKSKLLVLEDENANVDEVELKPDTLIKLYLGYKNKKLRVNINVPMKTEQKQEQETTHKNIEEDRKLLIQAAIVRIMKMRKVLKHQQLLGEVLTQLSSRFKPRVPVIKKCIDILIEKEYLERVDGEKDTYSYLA
UniProt P03129: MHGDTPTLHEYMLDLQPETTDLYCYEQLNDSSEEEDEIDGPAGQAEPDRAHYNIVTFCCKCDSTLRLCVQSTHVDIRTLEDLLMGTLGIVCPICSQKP

Assay [1] concerns the target T1, membrane-associated ring-CH-type finger 8 (MARCHF8) (human (endogenous in SCC152)) (UniProt Q5T0T0).
T1 sequence: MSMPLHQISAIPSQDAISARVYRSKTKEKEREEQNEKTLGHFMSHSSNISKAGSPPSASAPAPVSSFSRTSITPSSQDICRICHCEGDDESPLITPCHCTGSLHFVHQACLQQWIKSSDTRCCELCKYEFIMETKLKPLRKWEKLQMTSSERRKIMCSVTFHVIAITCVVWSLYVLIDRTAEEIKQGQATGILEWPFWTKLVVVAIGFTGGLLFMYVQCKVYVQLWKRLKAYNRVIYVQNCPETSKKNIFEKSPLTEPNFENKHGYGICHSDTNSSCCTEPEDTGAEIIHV
The experiment in a line: co-IP; whole cell lysates (RIPA buffer) of SCC152 cells treated with MG132 (10 µM); 5 µg of anti-MARCHF8, anti-CUL1 or anti-UBE2L3 antibody on protein A/G magnetic beads, 1-2 mg lysate, overnight at 4°C; detection by western blotting.

In assay [2] the target is cullin 1 (CUL1) (human (endogenous in SCC152)) (UniProt Q13616). The description is as above.

These are yes or no findings as the source states them, for the method shown. In cells and extracts the contact can be indirect. Some results given as binding are weak or reduced against the parent protein; the word gives no strength.

As to “human papillomavirus 16 oncoprotein E7 (HPV16 E7) (from UniProt P03129 1-98)”, the binding entry in assay [1] is “no binding”.

B1: membrane-associated ring-CH-type finger 8 (MARCHF8) (enzyme, UniProt Q5T0T0 1-291)
chain: T1 sequence
Turning to B1, in assay [2], the binding result is reported as “binds”.
